Values of other authors in patent US12240853B2, “Compounds useful in HIV therapy” (GlaxoSmithKline Intellectual Property (No.2) Limited, priority 2019, dated 2025).
Some entries share one result that the patent states for a list of compounds. For at least one compound, name, drawing or mass did not settle the structure.

Test system: M184V mutation
Settings: individual on a regimen containing 3TC/FTC; cited from earlier work

Nc1ccn([C@@H]2CS[C@H](CO)O2)c(=O)n1 [Example 3TC, lamivudine]
Reduction of susceptibility by the M184V mutation: > 100 fold
